Source: paper PMC10163288
The list shows a part of the results.

B1: il10ra_site1_sap_24_mot_HHH_b2_02736_000000092_0001_22_38_H_._HHH_b1_01843_af2_0001_0000200014_0000001_0_0001 (protein)
chain: SSSSDEELQEELRELIKEVEELLERGDTREAARLAQEILRLIIQLGDEELLRLLWEIIANGSSSS
B2: il10ra_site1_sap_22_mot_HHH_b1_06798_000000292_0001_1_19_H_._HHH_b1_02695_0001_0000700087_0000002_0_0001 (protein)
chain: SSSFIAEFSLEAAKRALEELAKRGDEERFKHLTETVARFLEKLGNEELARELREFAEQLESSSSS
B3: il10ra_site1_normal_mot_HHH_b2_00984_000000042_0001_1_20_H_._HHH_b1_06669_0001_0000400035_0000001_0 (protein)
chain: SSSSELEEEIRKLLEELKELVEEGDVEEAARLAQEIVRFIFELGDEELLKEVWELIRLAVERSSS
B4: il10ra_site1_normal_mot_HHH_b2_03425_000000200_0001_22_39_H_._HHH_b2_05523_af2_0001_0000200005_0000001_0 (protein)
chain: SSSSDERAEEAYELLRELIEAVRNGNEEEFEKIAERIEELIRELGSELFRFVLEHLERDLGSSSS
B5: il10ra_site1_normal_mot_b26a303360aa2756ef5b79665ce52f45_0001_000000179_0001_1_11_H_._HHH_b1_05267_0001_0000100009_0000001_0_af2pred_0001 (protein)
chain: SSSSSRELEEVQELIKEALRLLEEGNPEEARRVLEEAEELAEEAGNPLLEHIVRSLLEQVRSSSS
B6: il10ra_site1_normal_mot_HHH_b1_06816_000000239_0001_1_19_H_._HHH_b1_00941_0003_0000300047_0000002_0 (protein)
chain: SSSSEEEAEELVKEVEEEVRRLLEEGNPDEAFRLVREVIERLVELNNPEAARRLSQVFVETSSSS
B7: il10ra_site1_normal_mot_HHH_b2_03328_af2_000000127_0001_1_19_H_._HHH_b2_01666_0001_0000100010_0000001_0 (protein)
chain: SSSSSSEDHELYRISREILELIAEGDPEEAEELLRELEELAKEVGNFIARFVVRMLKARLSSSSS
B8: il10ra_site1_sap_16_mot_HHH_b1_01754_af2_000000279_0001_1_18_H_._HHH_b2_07461_0001_0000300018_0000002_0_0001 (protein)
chain: SSSSDEEEKEEAEKILEEAKELYEEGNPEEAIRLLAELLRLLFRIDEEILQAVWRLAKEISSSSS
B9: il10ra_site1_normal_mot_HHH_b2_00984_000000042_0001_1_20_H_._HHH_b1_00314_0001_0000400042_0000001_0 (protein)
chain: SSSSSDEELRQEIEELLRELEEAKSSEELAQVALRVLRLIYELKDKELLQELWEIIKRLFSSSSS
B10: il10ra_site1_normal_mot_HHH_b2_03330_000000161_0001_1_19_H_._HHH_b1_00960_0001_0000200016_0000002_0 (protein)
chain: SSSSSDREFHEFWRVFRELAKVDDPEEREELLEILEELAKEAGDPTLRAVVRLLKRKLKSSSSSS
B11: il10ra_site1_normal_mot_2c1a291787c6f40772924d4e9068d803_0001_af2_000000187_0001_34_48_H_._ems_3hM_441_0001_0000400013_0000001_0_af2pred_dldesign_0_af2pred (protein)
chain: NEELKKEIADLYHELSQLLKDDPELQKEVFELACQAYKAINEGNLEEAEALTEKLKAKLEELKKS
B12: il10ra_site1_normal_mot_8756ee2cf497b5429c717dfc0c0bcfd6_0001_000000186_0001_1_13_H_._HHH_b1_04937_af2_0001_0000500020_0000001_0 (protein)
chain: SSSSTEAEEVAELIREAAKLEREGDPEEAKEVLEEAREIAEENNNDVALWQVEYLLRKLNSSSSS
B13: il10ra_site1_normal_mot_HHH_b2_01235_000000294_0001_1_18_H_._HHH_b2_07943_0001_0000200033_0000002_0 (protein)
chain: SSSSSEESQRLYELFRRASELDFEGDEEEAREVLEEAVEIAREAGNPVLLFQAEWFLERVSSSSS
B14: il10ra_site1_sap_23_mot_HHH_b2_08144_af2_000000046_0001_38_52_H_._HHH_b1_01148_0001_0000400014_0000001_0_0001 (protein)
chain: SSSSSSRAERQQVEALLYFAEQANNPDARRIMLERAEELAEELNDPELERLVEEVRERLESSSSS
B15: il10ra_site1_normal_mot_e1dd4851c59bc1cdde016f988f6856bd_0001_1_000000200_0001_16_31_H_._HHH_b1_07157_0001_0000400044_0000001_0_af2pred_0001 (protein)
chain: SSSSSDEEARIKFIVLALVHTFNLSEEQEEELERLAEELLRRGFSAEEIAKILYHKARELGSSSS
B16: il10ra_site1_sap_8_mot_HHH_b2_02386_000000054_0001_1_20_H_._HHH_b1_03230_0001_0000200026_0000002_0_0001 (protein)
chain: SSSSDEERQELIEALKRLARLLIRGNEEEVKELLEHVEELAKELNDERTRRILEDLKRALSSSSS
B17: il10ra_site1_normal_mot_ems_3hM_3349_af2_000000045_0001_25_42_H_._c4dd8cf0dac887b0ed015202f8c0b8fc_0001_af2_0001_0000100005_0000002_0 (protein)
chain: SVEEKLEELLRELGVPPEVIRLIELALRLQLEQNGDPRQAERALLAWLRLLRSPEAKLVIEALER
B18: il10ra_site1_normal_mot_HHH_b1_02397_af2_000000085_0001_39_57_H_._HHH_b2_04747_af2_0001_0000300012_0000002_0 (protein)
chain: SSSSSSDEEERLEKLLEELEKAKTDEEIARIVQEALRIAFRLRDQEALQELLELFRELLSSSSSS

These binders were tested against il10ra, Q13651 (assay: yeast display titration).

Row | Binder | apparent Kd
1 | B1 | inactive: no binding seen
2 | B2 | inactive: no binding seen
3 | B3 | inactive: no binding seen
4 | B4 | inactive: no binding seen
5 | B5 | inactive: no binding seen
6 | B6 | inactive: no binding seen
7 | B7 | inactive: no binding seen
8 | B8 | inactive: no binding seen
9 | B9 | inactive: no binding seen
10 | B10 | inactive: no binding seen
11 | B11 | inactive: no binding seen
12 | B12 | inactive: no binding seen
13 | B13 | inactive: no binding seen
14 | B14 | inactive: no binding seen
15 | B15 | inactive: no binding seen
16 | B16 | inactive: no binding seen
17 | B17 | inactive: no binding seen
18 | B18 | inactive: no binding seen

Copied from the list:
Value for B10 under apparent Kd: inactive: no binding seen
Value for B2 under apparent Kd: inactive: no binding seen
